# Source: article PMC12040169 (PLOS Biology, 2025)
# The other results are listed elsewhere or left out.
# System: T1, CTL2-GFP (C. trachomatis L2/434/Bu, GFP-expressing)
# T1 construct: L2/434/Bu, GFP-expressing
# Parameters: species or system HeLa; Intracellular C. trachomatis growth in HeLa cells, bulk GFP fluorescence relative to DMSO
# Conditions: bulk GFP, single well; 28.5 h, 10 µM; inhibitor
row,Structure (SMILES),% of control remaining [%]
1,CCN(CC)Cc1cc(C(C)(C)C)oc1C(=O)O [CBK266013C],150.34
2,CS(=O)(=O)Nc1cc2ccccc2c(-c2ccc(OCc3ccccc3)c(F)c2)n1 [CBK073785],70.9034
3,CCCn1cc(C(=O)NCC2CCN(c3ccccc3F)C2)c(C)n1 (stereo not drawn) [CBK304634],107.009
4,Cc1ccc(NS(=O)(=O)c2ccc(OCC(=O)Nc3ccccc3C(F)(F)F)cc2)cc1 [CBK269120],156.896
5,Nc1ncnc(NCCCN2CCOCC2)c1[N+](=O)[O-] [CBK267267],144.116
6,NC(=O)C1CCN(C2CC(=O)NC2=O)CC1 (stereo not drawn) [CBK263290],99.3225
7,O=C(Nc1ccccc1)c1ccc(-c2ccccc2)cc1 [CBK261346],121.327
8,Cc1nc2nc(N)nn2c(C)c1CCC(=O)NCCc1ccccc1 [CBK304989],111.827
9,Cc1cc(C(=O)N(CCC#N)Cc2cccs2)no1 [CBK057316],98.0582
10,Cc1ccc(N(CC(=O)NCC2CCCO2)S(C)(=O)=O)cc1 (stereo not drawn) [CBK058709],118.546
11,Fc1cccc(C2NC(=S)NC3=C2N2CCC3CC2)c1 (stereo not drawn) [CBK288503],106.49
12,Cc1nn(C)c(C(=O)NNC(=S)Nc2ccc(S(N)(=O)=O)cc2)c1Br [CBK266963],180.638
13,O=C(NCCc1cccs1)Nc1ccc(F)c(F)c1F [CBK044543],99.3961
14,Cc1cc2ncn(CC(=O)NC3Cc4ccccc4C3)c2cc1C [CBK200261],109.904
15,CCCCC(c1cccnc1)N(C)C(=O)c1cc(CC)[nH]c(=O)c1 (stereo not drawn) [CBK307216],119.685
16,CC(=O)N1CCc2nc(CC3CC3)nc(NCCn3ccnn3)c2CC1 [CBK306933],123.455
17,Cc1ccc(-n2ncc3c(NCCc4ccc(S(N)(=O)=O)cc4)ncnc32)c(C)c1 [CBK265676],121.195
18,CCC1CCCCN1C(=O)c1ccc(NC2CC2)nc1 (stereo not drawn) [CBK304815],93.438
19,CCCCc1ccc(S(=O)(=O)n2ccc3c(N4CCNCC4)cccc32)cc1 [CBK003744C],119.19
20,CN1CCN(c2ccc(NC(=O)c3cc([N+](=O)[O-])ccc3N3CCOCC3)cc2)CC1 [CBK269425],157.97
21,COC(=O)c1c(NC(=S)NCCn2cc(Br)cn2)sc2c1CCC2 [CBK266905],168.9
22,CCOC(=O)CN(C)Cc1ccccc1Br [CBK261891],115.051
23,O=C1c2ccccc2C(=O)N1CCCc1nc2c3c4c(sc3ncn2n1)CCCCC4 [CBK268540],140.475
24,NC(=O)CN1CCC2(CCN(C(=O)c3cc(F)c(F)cc3F)C2)C1 (stereo not drawn) [CBK132140],144.359
25,O=P(O)(CCc1ccncc1)CN1CCCCC1 [CBK262323],100.721
26,COC(=O)CCc1ccc(S(=O)(=O)N2CCCN(Cc3cccc4c3OCO4)CC2)cc1 [CBK062993],136.371

row,Structure (SMILES),% of control remaining [%]
1,CC(C)c1ccc(NC(=O)O[C@@H]2CO[C@H]3[C@@H]2OC[C@@H]3NC(=O)C2CC2)cc1 [CBK289471],128.316
2,O=C(Nc1ccc(NC(=O)c2ccccc2O)cc1)c1cnc(-c2ccccc2)c(-c2ccncc2)c1 [CBK037490],91.655
3,Cc1cc(C)n(-c2ccc(C(=O)NCC3(C)COC3)cc2)n1 [CBK281756],124.448
4,Cc1cccc(OCCCn2cncc2-c2cnn(C)c2)c1 [CBK281763],145.637
5,O=C(O)c1ccc(C(=O)NC2CCN(CC(F)(F)F)C2=O)s1 (stereo not drawn) [CBK305524],135.9
6,c1cn(CC2(Cn3ccnc3)COC2)cn1 [CBK021839],123.179
7,CCNc1nc(-c2ccc3[nH]ccc3c2)cn2ccnc12 [CBK038002],139.746
8,CC1CCN(S(=O)(=O)c2ccc(NC(=O)c3ccc(Br)o3)cc2)CC1 [CBK264536],113.845
9,O=C(CSc1ncnc2ccccc12)Nc1nc2ccccc2s1 [CBK287510],115.904
10,COc1ccc(C(=O)N2CCC3(CCCN(C(=O)Cn4cc(C)c(=O)[nH]c4=O)C3)C2)cc1OC (stereo not drawn) [CBK137085],76.835
11,CN1CCN(C(=O)C2CCN(S(=O)(=O)c3ccc4ccccc4c3)CC2)CC1 [CBK269504],164.141
12,O=C(CN(c1ccc(Cl)cc1)S(=O)(=O)c1ccccc1)Nc1ccc2ccccc2c1 [CBK263776],88.1765
13,O=C(C1CCCCC1)N1CCC(c2nnc3n2CCCCC3)CC1 [CBK284613],147.477
14,Cc1ncsc1CCOc1cc(N2CCCC2)ncn1 [CBK115895],122.189
15,N#Cc1c(SCC(=O)N2CCc3ccccc3C2)nsc1SCC(=O)N1CCc2ccccc2C1 [CBK267453],121.001
16,O=C(O)COc1ccccc1/C=N\N1CCN(c2ccccn2)CC1 [CBK262916],99.7866
17,O=C(c1cccc(F)c1)N1CCC(O)(c2cccnc2F)CC1 [CBK284357],110.696
18,COc1ccc2c(c1)CCN=C2C[C@H]1CN(C(=O)C(C)(C)C)CC[C@H]1CC(=O)O [CBK289155],114.31
19,CCn1c2ccccc2c2cc(CN3CCN(c4ccccc4OC)CC3)ccc21 [CBK261579],116.012
20,C(=N\N1CCOCC1)/c1cccs1 [CBK027942],151.636
21,CCN1CCN(C(=O)C2CC=CCC2C(=O)O)CC1 (stereo not drawn) [CBK270295],128.428
22,Cc1c(Cl)cccc1NC(=O)CSCc1cc(O)[nH]n1 [CBK268199],117.053
23,CCC(=O)Nc1nc(-c2ccc(C(=O)OC)cc2)nc2c1c(=O)oc1ccccc12 [CBK268449],133.994
24,CC1CN(S(=O)(=O)c2ccc(NC(=O)c3nc(SCc4ccccc4)ncc3Cl)cc2)CC(C)O1 (stereo not drawn) [CBK268930],71.1
25,COc1ccc([C@H]2CN(C(=O)c3ccccc3)[C@@H]3CCN(Cc4cccc(F)c4)C[C@H]23)cc1 [CBK285584],85.1677

# Retrieved by structure from above (3):
row,Structure (SMILES),% of control remaining [%]
25,O=P(O)(CCc1ccncc1)CN1CCCCC1 [CBK262323],100.721
9,O=C(CSc1ncnc2ccccc12)Nc1nc2ccccc2s1 [CBK287510],115.904
7,O=C(Nc1ccccc1)c1ccc(-c2ccccc2)cc1 [CBK261346],121.327
